Data source: PubChem BioAssay AID602196 (INSERM, 2012)
The whole screen tested about 23,000 reagents; shown is an unselected part. 455 of all reagents (2%) were called active. 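Active includes both protection and sensitisation; some change values fall well beyond the stated -50 to +50 range.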 Entries without a mark were called inactive. Reagents against one gene are numbered here. Not given: the amount of reagent.

Screen: 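Modifiers of cisplatin sensitivity in A549 cells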
Cells: human A549 lung cancer cells
Knock-down reagent: siRNA pair against human genes
Duration: 48 h transfection before cisplatin; time from cisplatin to read-out not stated
Conditions: cisplatin at a dose killing half of control-siRNA cells; exact dose and duration not given
Detection: 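Shift in cisplatin death relative to control siRNA, from -50 (all cells die) to +50 (no cells die); siRNAs harmful on their own scored 0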
Reading the numbers: two-siRNA summed score (-2 to +2): higher = both siRNAs protect from cisplatin killing; -2 means both sensitise; mean protection from cisplatin (shift in death) and protection from cisplatin (shift in death), siRNA C and protection from cisplatin (shift in death), siRNA D: higher = protection from cisplatin killing
Call rule: 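siRNAs harmful alone (LDH or WST-1) get 0; others get +1 for less and -1 for more cisplatin killing; genes are active when the two siRNAs give the same sign, summing to ±2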
Meaning of the calls: active = both siRNAs shift cisplatin killing the same way; inactive = no consistent shift, or siRNA harmful alone

target gene	reagent no.	two-siRNA summed score (-2 to +2)	mean protection from cisplatin (shift in death) (%)	protection from cisplatin (shift in death), siRNA C (%)	protection from cisplatin (shift in death), siRNA D (%)
TOM1L1 (GeneID 10040)	1	1	12.6	14.2	11
RAB35 (GeneID 11021)	1	0	-2	-23.3	19.4
SLC17A5 (GeneID 26503)	1	0	0.4	2.3	-1.4
ST6GALNAC4 (GeneID 27090)	1	0	1	14.8	-12.8
ARHGAP9 (GeneID 64333)	1	0	0.5	2.5	-1.5
KLHL22 (GeneID 84861)	1	0	5.1	-2	12.2
S100A7 (GeneID 6278)	1	0	10	10.2	9.8
CLEC4C (GeneID 170482)	1	0	10.9	15.9	6
LINC00523 (GeneID 283601)	1	0	1.3	-8.1	10.8
LOC389815	1	0	3.9	-1.4	9.2
LOC402665	1	0	5.6	8.9	2.3
LOC440805	1	1	16.9	23.7	10.2
ALDH6A1 (GeneID 4329)	1	-1	-12.9	3.2	-29
KLK10 (GeneID 5655)	1	0	-16.2	-13.5	-18.9
TRIM50 (GeneID 135892)	1	0	7.8	20.6	-5.1
UBQLN4 (GeneID 56893)	1	-1	-17.9	-0.5	-35.4
MUTYH (GeneID 4595)	1	0	3.2	4.5	1.9
ELOVL1 (GeneID 64834)	1	0	-8.5	-7.6	-9.4
SPAG6 (GeneID 9576)	1	0	4.7	0.7	8.7
PALM2AKAP2 (GeneID 445815)	1	0	-4.3	-2.8	-5.8
PALM2AKAP2 (GeneID 445815)	2	0	-3.4	-5.8	-1
PALM2AKAP2 (GeneID 445815)	3	0	0.7	-7	8.3
RAET1L (GeneID 154064)	1	-1	-15.1	-1.6	-28.6
MDGA1 (GeneID 266727)	1	1	14.1	15.8	12.4
SOD3 (GeneID 6649)	1	0	31.9	16.6	47.2
USH1C (GeneID 10083)	1	0	-5.1	-0.8	-9.4
OR5K2 (GeneID 402135)	1	1	15.9	17.4	14.4
LOC442265	1	1	22.9	35	10.9
G6PC3 (GeneID 92579)	1	0	8.9	2	15.7
IL36B (GeneID 27177)	1	0	3.4	6.7	0
ZFP69 (GeneID 339559)	1	1	10.3	21.1	-0.5
LOC342979	1	1	10.9	11.4	10.5
ESCO1 (GeneID 114799)	1	0	-0.8	-9	7.3
LOC391730	1	1	15.5	17.4	13.6
LOC440224	1	2 (active)	17.8	13.8	21.7
LOC389199 (GeneID 389199)	1	0	4.1	-2.4	10.5
OR6X1 (GeneID 390260)	1	0	8.3	10.6	6.1
GBP6 (GeneID 163351)	1	0	-2.7	-20.2	14.7
VGLL3 (GeneID 389136)	1	0	1.6	-2	5.3
ARMC1 (GeneID 55156)	1	0	-2.8	1.9	-7.5
LOC401898	1	1	4.7	0.3	9.1
AURKB (GeneID 9212)	1	0	-10.4	-9.8	-10.9
ZNF275 (GeneID 10838)	1	1	13.7	9.6	17.7
OCLN (GeneID 100506658)	1	0	5.4	15.4	-4.5
LINC01734 (GeneID 339568)	1	0	4.4	-3.8	12.7
F2 (GeneID 2147)	1	-1	-3.3	-13.9	7.2
CMTM3 (GeneID 123920)	1	1	12.5	23.3	1.7
KIAA0319 (GeneID 9856)	1	0	8.9	1.7	16.1
LOC389221	1	1	17.9	20.1	15.7
CRYBG3 (GeneID 131544)	1	0	5.8	8.5	3.1
PAK6 (GeneID 56924)	1	1	15.5	11.7	19.3
LAMTOR2 (GeneID 28956)	1	0	4.9	0.9	8.9
LOC440438	1	0	8.3	6.4	10.2
TRERF1 (GeneID 55809)	1	0	3.4	17.1	-10.3
WDR59 (GeneID 79726)	1	0	4.8	1.8	7.8
NAT14 (GeneID 57106)	1	0	1	2.8	-0.9
LOC441457	1	0	5.9	8	3.7

Targets listed so far whose target name begins with P or p (4):
target gene	reagent no.	two-siRNA summed score (-2 to +2)	mean protection from cisplatin (shift in death) (%)	protection from cisplatin (shift in death), siRNA C (%)	protection from cisplatin (shift in death), siRNA D (%)
PALM2AKAP2 (GeneID 445815)	1	0	-4.3	-2.8	-5.8
PALM2AKAP2 (GeneID 445815)	2	0	-3.4	-5.8	-1
PALM2AKAP2 (GeneID 445815)	3	0	0.7	-7	8.3
PAK6 (GeneID 56924)	1	1	15.5	11.7	19.3
